Experimental data published in paper PMC12056308.
No constants are given. Whether binding was seen depends on the method and setting. Binding seen in cells or lysates may run through a third protein. Some binding calls cover weakened binding; strength is not graded here. Tags and fused reporters may be left off the sequences shown.

Amino acid sequences for entries named in this document (tags omitted).
UniProt P35222: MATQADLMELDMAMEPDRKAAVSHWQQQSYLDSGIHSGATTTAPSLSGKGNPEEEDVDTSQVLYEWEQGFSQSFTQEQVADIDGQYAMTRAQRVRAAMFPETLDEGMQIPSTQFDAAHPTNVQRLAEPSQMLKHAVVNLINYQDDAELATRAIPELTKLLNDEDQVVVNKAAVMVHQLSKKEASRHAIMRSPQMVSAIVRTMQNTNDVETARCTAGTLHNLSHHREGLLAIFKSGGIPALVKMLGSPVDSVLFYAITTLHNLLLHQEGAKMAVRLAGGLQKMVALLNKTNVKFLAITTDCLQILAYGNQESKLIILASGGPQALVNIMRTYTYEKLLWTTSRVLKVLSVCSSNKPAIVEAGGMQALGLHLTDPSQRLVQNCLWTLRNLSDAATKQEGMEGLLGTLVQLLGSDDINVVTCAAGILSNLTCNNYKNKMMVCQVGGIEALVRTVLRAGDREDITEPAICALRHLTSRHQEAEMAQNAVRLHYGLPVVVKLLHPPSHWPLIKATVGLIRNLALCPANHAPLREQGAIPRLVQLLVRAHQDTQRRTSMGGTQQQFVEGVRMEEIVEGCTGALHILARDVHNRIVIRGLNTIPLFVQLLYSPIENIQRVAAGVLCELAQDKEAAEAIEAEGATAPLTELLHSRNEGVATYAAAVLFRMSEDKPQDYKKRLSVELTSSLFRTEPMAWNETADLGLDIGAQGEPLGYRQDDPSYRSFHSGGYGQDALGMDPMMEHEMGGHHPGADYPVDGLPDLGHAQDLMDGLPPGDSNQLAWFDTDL

Target: T1, EGFP-tagged CSNK1A1 wild type (casein kinase 1 isoform alpha) (human) (UniProt P48729)
T1 sequence: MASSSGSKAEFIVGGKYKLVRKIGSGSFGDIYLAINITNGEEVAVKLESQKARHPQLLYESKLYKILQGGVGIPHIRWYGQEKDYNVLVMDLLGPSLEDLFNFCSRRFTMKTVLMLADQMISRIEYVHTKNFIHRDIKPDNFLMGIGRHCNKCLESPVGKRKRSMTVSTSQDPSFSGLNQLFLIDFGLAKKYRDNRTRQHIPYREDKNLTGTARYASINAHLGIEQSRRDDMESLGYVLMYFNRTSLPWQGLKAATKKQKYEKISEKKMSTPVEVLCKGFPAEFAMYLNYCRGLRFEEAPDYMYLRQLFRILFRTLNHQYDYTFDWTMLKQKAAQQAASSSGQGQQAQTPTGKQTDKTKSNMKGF
Assay: co-IP; HEK-293T co-transfected with EGFP-tagged CSNK1A1 and Flag-CTNNB1 plasmids for 48 h; NP-40 lysis; 500 μg lysate immunoprecipitated with 5 μg anti-EGFP antibody overnight at 4°C, protein A/G agarose 4 h, five RIPA washes; Western blot

binding: binds
Substance: Flag-CTNNB1 (β-catenin) (from UniProt P35222 1-781)
